Primary screen of a compound library

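Assay of Toxoplasma gondii numbers, read through their beta-galactosidase reporter with a colour substrate. Concentration: 50 µM. Higher reads as fewer parasites (inferred from which compounds were picked for retests). Of about 18,000 compounds tested this way, about 170 (0.94%) reached 50% or more in at least one test.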

Values are the deposited “Percent Effect”, in %. The record does not define 0% and 100%; most values in the screen are far below 50% and negative numbers occur (in some assays of this library far below -100). The compounds are a random part of those screened.

SMILES	Percent Effect
CC(C)CCC(=O)N1CCN(CC(O)C(F)(F)F)CC1 (centres undefined)	-0.8085
COCc1ccc(C(=O)N2CCN3CCCCC3C2)s1 (centres undefined)	-4.504
CC(C1CCN(Cc2ncc[nH]2)CC1)N1CCOCC1 (centres undefined)	-6.006
CCC(NS(C)(=O)=O)c1cnn(CC)c1 (centres undefined)	3.399
CNC(=O)CC1C(=O)NCCN1C1CCNCC1 (centres undefined)	-0.4114
CC(C)N(CCCNC(=O)c1cnccn1)S(C)(=O)=O	0.7591
CN(C)C(CN)c1ccc(F)cc1 (centres undefined)	2.687
CNCCN(C)C(=O)c1cc(F)ccc1C	10.11
CN(CC1CCCCO1)C(=O)c1ccn(C)c(=O)c1 (centres undefined)	-1.161
CNS(=O)(=O)c1ccccc1S(=O)(=O)NC1CCOC1 (centres undefined)	13.58
Cc1nc(C)c(CNc2ccc(C#N)nc2)s1	0.1981
OCC1CCN(C2CCCCC2)C1 (centres undefined)	2.411
CCC(NC(=O)CSc1ccccn1)c1ccncc1 (centres undefined)	5.757
O=C(CC1CCNCC1)N1CCCSCC1	-6.09
CN(CC(C)(C)S(C)(=O)=O)S(=O)(=O)c1ccccc1Cl	23.03
CCC(NC(=O)c1cc(C)[nH]c(=O)c1)c1nc(C)c[nH]1 (centres undefined)	-15.01
CS(=O)(=O)CC1(CNc2ccc(Br)cn2)CC1	-20.1
c1cnn(CCN2CCCC(Cn3cncn3)C2)c1 (centres undefined)	21.26
COCC(=O)NCCS(=O)(=O)c1ccc(Br)cc1	10.07
Cc1nc(NC(=O)NCCSCCCO)sc1C	13.02
CCC(C(=O)NCCc1nccn1C)N1CCCC1=O (centres undefined)	1.651
CC(C)CCN1CCN(C(=O)N(C)C)CC1	4.624
CCS(=O)(=O)C(C)C(=O)NC(C)(C)C (centres undefined)	-4.506
CCC[C@H]1CN(C(=O)CCCn2cccn2)C[C@@H]1N	-25.69
FC(F)(F)COC1CCCNC1 (centres undefined)	-0.05626
Cc1cccc(NCC2CCN(CCC(N)=O)C2)n1 (centres undefined)	2.724
COc1ccc(N2CCNCC2)cc1F	2.799
OCc1csc(N2CCC3(CC2)OCCCC3O)n1 (centres undefined)	4.219
NCCCN1CCOC1=O	-6.338
COc1ccc(OC)c(CNC(=O)C(C)NC(N)=O)c1 (centres undefined)	-21.13
CS(=O)(=O)N1CC(CN)C1	10.6
COC(=O)C(NC(=O)CCc1ccncc1)C(C)(C)C (centres undefined)	5.848
CCCS(=O)(=O)Nc1cccc2c1CCN2C	6.742
CC(C)C(NC(=O)c1cnccn1)c1nccn1C (centres undefined)	0.877
O=C(Cc1c[nH]c2ccccc12)N[C@@H]1CCOC[C@H]1O	1.393
NC(=O)c1ccc(C(=O)NCCC(O)C(F)(F)F)cn1 (centres undefined)	-1.72
NCCc1ccc(OCC(F)(F)F)nc1	-6.02
Cc1cccc(CNC(=O)c2ccc(C#N)nc2)n1	0.9019
Cc1c[nH]c(C(=O)NC(c2nccn2C)C2CC2)n1 (centres undefined)	-15.47
OC1(Cc2ccncc2)CCNCC1	10.06
C[C@@H](C(=O)NCc1cccc(Cl)c1)n1cnnn1	-3.476
COC(=O)c1ccc(CCNC(=O)C2CCCO2)cc1 (centres undefined)	-1.516
Cc1cnn(CCNCc2cccc3c2OCCO3)c1	26.93
CS(=O)(=O)N1CCN(C(=O)c2ccccc2)C1	-22.21
CNCc1cnc(C)s1	-0.265
N#Cc1ccnc(SCc2ccncc2)c1	30.75
CN1CCC(NC(=O)C2CC2)CC1	-45.98
COc1ccc(C(O)CNC2CCSCC2)cc1 (centres undefined)	-4.214
N#Cc1ccc(C(=O)NC2CCC(CO)CC2)nc1 (centres undefined)	-5.41
COCc1nc(C2COCCN2)no1 (centres undefined)	-16.7
COC(=O)CSc1nc2ccc(OC)cc2[nH]1	8.596
COc1ccccc1CNC(=O)COc1nc(C)no1	-8.654
NC1CCN(C(=O)c2ccoc2)CC1	-2.673
Cc1nnc(SCC(=O)NCCCc2csc(N)n2)s1	-3.727
CCCn1cc(NC(C)CCn2cncn2)cn1 (centres undefined)	8.198
Cc1nnc(NC(=O)c2c(C)noc2C)s1	-3.895
CC(=O)N1CCc2cc(NC(=O)c3ccsc3)ccc21	0.3926
CCOc1cccc(NC(=O)N(CC)CC)n1	-10.34
CC(C)C(=O)NCc1cn2ccccc2n1	0.1992
Cc1nc(C(=O)N2CCSCC2)c(C)s1	-3.811
OCC1CCN(Cc2ccc(F)c3cccnc23)CC1	-7.165
COc1ncccc1NC(=O)NC1CCCCNC1=O (centres undefined)	4.656
O=C1NCC2(CCN(CCc3ccccn3)CC2)O1	7.414
CC(=O)c1ccc2[nH]c(=O)oc2c1	-5.94
CC(C)OCCOCC(O)CN(C)Cc1cccnc1 (centres undefined)	-1.887
CC[C@@]1(O)CCN(C(=O)c2sc(OC)nc2C)C[C@H]1O	-9.61
N#Cc1ccc(NCC2(O)CCOCC2)cc1Cl	-6.312
CC(C)CNc1cccc(-n2cnnn2)c1	-9.142
CCOCCOC(C)C(=O)n1ncc(C#N)c1N (centres undefined)	7.017
CCCOc1cccc(NCC(=O)N2CCNC2=O)c1	1.752
COc1cccc(CNc2nc(C)no2)c1	6.025
Cc1cc(NC(=O)CN2CCNC(=O)C2)ccc1Br	6.797
O=C(CCc1ccccc1)NCC1(O)CCOC1 (centres undefined)	3.104
N#Cc1ccccc1CSc1nnnn1C1CC1	-2.766
C=C(C)COCCNC(=O)c1c(O)cccc1F	-4.515
COc1ccc(NS(=O)(=O)N(C)C)c(Br)c1	-2.042
CN1CCCC(NC(=O)NCCc2ccncc2)C1 (centres undefined)	-8.049
Cc1ccc(C)c(CS(=O)(=O)CC(=O)NCC2CC2)c1	-6.404
CN[C@@H]1COC[C@H]1O	-6.28
CC(=O)N1CCC(CNC(C)Cn2cccn2)CC1 (centres undefined)	-3.076
CNCc1cccc(OC)n1	-10.41
CCN1CCCCC1C(=O)N(C)CCn1cccn1 (centres undefined)	24.52
Cc1nc(C(C)C)cc(N(C)CC(O)CO)n1 (centres undefined)	-0.5604
Cc1ncsc1CCN(C)C(=O)c1cnc(O)cn1	4.51
CSC(C)(C)CNC(=O)NC1CCCS(=O)(=O)C1 (centres undefined)	31.17
CC(=O)c1ccc(Cl)c(S(=O)(=O)NC(CN)C2CC2)c1 (centres undefined)	-10.43
COCCn1cc(CNC(=O)NCC(F)F)cn1	-9.663
CN1CCC(CN2CCC3(CCNCC3)C2)CC1	5.121
CCN(Cc1nccn1C)C(=O)c1cccc(C#N)c1	17.53
O=C1CN(C(=O)C2=Cc3cc(Cl)ccc3OC2)CCN1	-1.31
Cc1cc(NC(C)CN2CCOCC2)ncc1Br (centres undefined)	5.402
CCO[C@@H]1COCC[C@H]1NC(=O)c1cncn1C	0.586
O=c1ccc(F)cn1CCCOCC(F)(F)F	-15.65

For reference, 7 entries once more:

{"smiles": "CC(C1CCN(Cc2ncc[nH]2)CC1)N1CCOCC1", "stereo": "centres undefined", "Percent Effect": -6.006}
{"smiles": "CN(CC1CCCCO1)C(=O)c1ccn(C)c(=O)c1", "stereo": "centres undefined", "Percent Effect": -1.161}
{"smiles": "CC(C)C(NC(=O)c1cnccn1)c1nccn1C", "stereo": "centres undefined", "Percent Effect": 0.877}
{"smiles": "Cc1nc(NC(=O)NCCSCCCO)sc1C", "Percent Effect": 13.02}
{"smiles": "CN1CCC(CN2CCC3(CCNCC3)C2)CC1", "Percent Effect": 5.121}
{"smiles": "C[C@@H](C(=O)NCc1cccc(Cl)c1)n1cnnn1", "Percent Effect": -3.476}
{"smiles": "CC(C)CNc1cccc(-n2cnnn2)c1", "Percent Effect": -9.142}

The values are deposited in ChEMBL (CHEMBL3988442, “University of Dundee, Small-Polar-MMV Screening Library” (2021)).